# Test results from patent publication US20210347848A1.
# Results are given in words; binding and its absence hold for the method and conditions named. Some results given as binding are weak or reduced against the parent protein; the word gives no strength.
# T1: mouse CD47 (mouse) (UniProt Q61735)
# T1 sequence (looked up): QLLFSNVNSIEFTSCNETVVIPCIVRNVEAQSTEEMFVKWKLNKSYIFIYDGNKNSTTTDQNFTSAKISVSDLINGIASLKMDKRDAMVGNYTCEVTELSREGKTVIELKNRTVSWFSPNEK
# Columns and labels:
# [1] = target: cynomolgus monkey CD47 (cynomolgus monkey); test: SPR
# [2] = target: T1, mouse CD47 (mouse); test: SPR
Binder,binding [1],binding [2]
Decoy polypeptide Q (Fc fusion) EEELQIIQPDKSISVAAGESATLHCTITSLFPVGPIQWFRGAGPGRVLIYNQRQGPFPRVTTVSDTTKRNNMDFSIRISNITPADAGTYYCIKFRKGSPDDVEFKSGAGTELSVRAKPSDKTHTCPPCPAPEAAGAPSVFLFPPKPKDTLMISRTPEVTCVVVDVSHEDPEVKFNWYVDGVEVHNAKTKPREEQYASTYRVVSVLTVLHQDWLNGKEYKCKVSNKALPAPIEKTISKAKGQPREPQVYTLPPSREEMTKNQVSLTCLVKGFYPSDIAVEWESNGQPENNYKTTPPVLDSDGSFFLYSKLTVDKSRWQQGNVFSCSVMHEALHNHYTQKSLSLSPG,binds,binds
Decoy polypeptide C (Fc fusion) EEELQIIQPEKLLLVTVGKTATLHCTITSLFPVGPIQWFRGVGPGRVLIYNQKDGPFPRVTTVSDGTKRNNMDFSIRISSITPADVGTYYCVKFRKGSPEDVEFKSGPGTEMALGAKPSDKTHTCPPCPAPEAAGAPSVFLFPPKPKDTLMISRTPEVTCVVVDVSHEDPEVKFNWYVDGVEVHNAKTKPREEQYASTYRVVSVLTVLHQDWLNGKEYKCKVSNKALPAPIEKTISKAKGQPREPQVYTLPPSREEMTKNQVSLTCLVKGFYPSDIAVEWESNGQPENNYKTTPPVLDSDGSFFLYSKLTVDKSRWQQGNVFSCSVMHEALHNHYTQKSLSLSPG,binds,binds
Decoy polypeptide J (Fc fusion) EEELQIIQPEKLLLVTVGKTATLHCTITSLLPVGPIQWFRGVGPGRELIYNQRDGPFPRVTTVSDGTKRNNMDFSIRISSITPADVGTYYCVKFRKGTPEDVEFKSGPGTEMALGAKPSDKTHTCPPCPAPEAAGAPSVFLFPPKPKDTLMISRTPEVTCVVVDVSHEDPEVKFNWYVDGVEVHNAKTKPREEQYASTYRVVSVLTVLHQDWLNGKEYKCKVSNKALPAPIEKTISKAKGQPREPQVYTLPPSREEMTKNQVSLTCLVKGFYPSDIAVEWESNGQPENNYKTTPPVLDSDGSFFLYSKLTVDKSRWQQGNVFSCSVMHEALHNHYTQKSLSLSPG,binds,binds

# Now from value to binder:
binding [1],binding [2],Binder
binds,binds,Decoy polypeptide U (Fc fusion) EEELQIIQPDKSVLVAAGETATLRCTITSLFPVGPIQWFRGAGPGRELIYNQREGPFPRVTTVSDTTKRNNMDFSIRIGAITPADAGTYYCVKFRKGSPDDVEFKSGAGTELSVRAKPSDKTHTCPPCPAPEAAGAPSVFLFPPKPKDTLMISRTPEVTCVVVDVSHEDPEVKFNWYVDGVEVHNAKTKPREEQYASTYRVVSVLTVLHQDWLNGKEYKCKVSNKALPAPIEKTISKAKGQPREPQVYTLPPSREEMTKNQVSLTCLVKGFYPSDIAVEWESNGQPENNYKTTPPVLDSDGSFFLYSKLTVDKSRWQQGNVFSCSVMHEALHNHYTQKSLSLSPG
binds,binds,Decoy polypeptide P (Fc fusion) EDELQIIQPEKSVSVAAGESATLRCAITSLFPVGPIQWFRGAGAGRVLIYNQRQGPFPRVTTVSETTKRNNLDFSISISNITPADAGTYYCIKFRKGSPDDVEFKSGAGTELSVRAKPSDKTHTCPPCPAPEAAGAPSVFLFPPKPKDTLMISRTPEVTCVVVDVSHEDPEVKFNWYVDGVEVHNAKTKPREEQYASTYRVVSVLTVLHQDWLNGKEYKCKVSNKALPAPIEKTISKAKGQPREPQVYTLPPSREEMTKNQVSLTCLVKGFYPSDIAVEWESNGQPENNYKTTPPVLDSDGSFFLYSKLTVDKSRWQQGNVFSCSVMHEALHNHYTQKSLSLSPG
